From publication PMC5425256
Results are given in words; binding and its absence hold for the method and conditions named. In cells and extracts the contact can be indirect. Some binding calls cover weakened binding; strength is not graded here. For some assays here: Tags and fused reporters may be left off the sequences shown. Blank lines part the entries; values can stand above or below the binder they belong to.

By UniProt entry, the sequences of proteins in these tests, tags left out.
UniProt Q9NQU5: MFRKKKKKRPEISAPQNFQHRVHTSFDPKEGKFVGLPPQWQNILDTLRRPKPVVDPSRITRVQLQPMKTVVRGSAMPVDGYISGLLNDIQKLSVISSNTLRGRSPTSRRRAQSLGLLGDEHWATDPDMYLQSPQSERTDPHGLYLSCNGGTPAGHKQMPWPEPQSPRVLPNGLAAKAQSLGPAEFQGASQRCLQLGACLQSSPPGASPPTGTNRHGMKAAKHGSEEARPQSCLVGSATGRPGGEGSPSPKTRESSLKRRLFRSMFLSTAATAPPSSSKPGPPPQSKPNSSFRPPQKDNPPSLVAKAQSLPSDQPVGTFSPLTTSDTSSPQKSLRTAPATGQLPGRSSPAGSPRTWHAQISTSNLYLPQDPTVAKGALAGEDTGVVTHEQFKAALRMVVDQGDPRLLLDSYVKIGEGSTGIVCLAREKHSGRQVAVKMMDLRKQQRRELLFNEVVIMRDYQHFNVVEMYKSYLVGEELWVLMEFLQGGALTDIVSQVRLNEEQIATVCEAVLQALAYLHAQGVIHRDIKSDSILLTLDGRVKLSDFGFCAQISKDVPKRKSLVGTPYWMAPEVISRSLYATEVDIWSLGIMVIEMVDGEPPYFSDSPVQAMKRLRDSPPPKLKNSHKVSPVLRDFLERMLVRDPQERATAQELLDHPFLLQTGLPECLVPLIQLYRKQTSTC

Legend:
[1] = target: recombinant GST-Pak6 (from pMW-GST-Pak6, E. coli) (human) (UniProt Q9NQU5); assay: pull-down; only the target purified
[2] = target: GFP-Pak6 (pCB6-GFP-Pak6) (human) (UniProt Q9NQU5); assay: co-IP

binding [1]: binds
B1: RhoD from HeLa cell lysates (protein, UniProt O00212 1-210)
chain: MTAAQAAGEEAPPGVRSVKVVLVGDGGCGKTSLLMVFADGAFPESYTPTVFERYMVNLQVKGKPVHLHIWDTAGQDDYDRLRPLFYPDASVLLLCFDVTSPNSFDNIFNRWYPEVNHFCKKVPIIVVGCKTDLRKDKSLVNKLRRNGLEPVTYHRGQEMARSVGAVAYLECSARLHDNVHAVFQEAAEVALSSRGRNFWRRITQGFCVVT

binding [2]: binds
B2: Myc-RhoD (pCB6 Myc-RhoD) (protein, UniProt P97348 1-210)
chain: MNASQVAGEEAPQSGHSVKVVLVGDGGCGKTSLMMVFAKGAFPESYSPTVFERYNATLQMKGKPVHLQIWDTAGQDDYDRLRPLFYPDANVLLLCFDVTNPNSFDNVSNRWYPEVTHFCKGVPIIVVGCKIDLRKDKVLVNNLRKKRLEPVTYHRGHDMARSVGAVAYLECSARLHDNVEAVFQEAAEVALSSRRHNFWRRITQNCCLAT
